These are yes or no findings as the source states them, for the method shown. Binding seen in cells or lysates may run through a third protein. Some entries that bind do so weakly or less than the wild type.
Columns and labels:
Experiment in all cases: FRET or BRET
[1] = biological target: wild-type human μ opioid receptor fused to EGFP at its C-terminal end (human) (UniProt P35372)
[2] = biological target: wild-type human glucagon-like peptide-1 receptor fused to EGFP at its C-terminal end (human) (UniProt P43220)
[3] = biological target: human GLP-1R natural genetic variant T440A fused to EGFP at its C-terminal end (human) (UniProt P43220)
[4] = biological target: human GLP-1R natural genetic variant S445T fused to EGFP at its C-terminal end (human) (UniProt P43220)
[5] = biological target: human GLP-1R natural genetic variant L443P fused to EGFP at its C-terminal end (human) (UniProt P43220)

Sequences of proteins named here, by UniProt entry; tags and fusion partners are left off. A change or cut given only in a name is not applied to a line headed by its entry. A line that says so, or that is headed by a name, gives the form on record, which may keep a tag or linker. Residues count along the entry.
UniProt P35372: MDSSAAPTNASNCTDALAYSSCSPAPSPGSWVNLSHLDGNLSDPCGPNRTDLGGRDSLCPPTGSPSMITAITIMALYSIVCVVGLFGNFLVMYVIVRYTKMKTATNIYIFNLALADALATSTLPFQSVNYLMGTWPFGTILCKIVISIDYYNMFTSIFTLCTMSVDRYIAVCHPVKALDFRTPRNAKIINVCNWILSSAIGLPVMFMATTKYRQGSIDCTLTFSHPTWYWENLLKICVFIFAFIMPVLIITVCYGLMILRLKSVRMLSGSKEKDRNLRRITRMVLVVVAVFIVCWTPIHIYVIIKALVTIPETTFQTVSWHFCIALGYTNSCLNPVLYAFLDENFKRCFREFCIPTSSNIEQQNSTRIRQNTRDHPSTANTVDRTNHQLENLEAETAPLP
wild-type human glucagon-like peptide-1 receptor fused to EGFP at its C-terminal end (P43220, residues 24-463): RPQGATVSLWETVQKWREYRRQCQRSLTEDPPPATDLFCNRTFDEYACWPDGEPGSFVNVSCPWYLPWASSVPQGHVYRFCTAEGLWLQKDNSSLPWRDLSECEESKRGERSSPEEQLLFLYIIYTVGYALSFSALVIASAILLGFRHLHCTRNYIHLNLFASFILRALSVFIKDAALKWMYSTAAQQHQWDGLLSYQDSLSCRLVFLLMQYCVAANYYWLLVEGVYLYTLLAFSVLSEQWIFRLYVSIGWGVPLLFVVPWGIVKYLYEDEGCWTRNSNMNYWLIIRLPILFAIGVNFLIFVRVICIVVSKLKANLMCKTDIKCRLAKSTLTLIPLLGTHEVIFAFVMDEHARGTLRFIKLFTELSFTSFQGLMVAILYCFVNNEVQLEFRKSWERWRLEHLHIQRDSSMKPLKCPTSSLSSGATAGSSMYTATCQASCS
human GLP-1R natural genetic variant T440A fused to EGFP at its C-terminal end (P43220, form named): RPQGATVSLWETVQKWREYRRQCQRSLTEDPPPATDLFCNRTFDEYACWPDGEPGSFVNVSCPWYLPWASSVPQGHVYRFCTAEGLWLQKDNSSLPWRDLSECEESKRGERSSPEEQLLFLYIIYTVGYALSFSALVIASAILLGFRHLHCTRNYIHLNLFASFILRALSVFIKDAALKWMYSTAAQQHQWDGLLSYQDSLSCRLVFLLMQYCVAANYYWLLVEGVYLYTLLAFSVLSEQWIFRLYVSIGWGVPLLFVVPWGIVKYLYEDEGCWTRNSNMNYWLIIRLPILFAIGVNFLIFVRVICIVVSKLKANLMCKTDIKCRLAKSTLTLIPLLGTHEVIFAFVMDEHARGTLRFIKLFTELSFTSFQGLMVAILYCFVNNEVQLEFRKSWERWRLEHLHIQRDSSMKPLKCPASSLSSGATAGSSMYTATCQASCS
human GLP-1R natural genetic variant S445T fused to EGFP at its C-terminal end (P43220, form named): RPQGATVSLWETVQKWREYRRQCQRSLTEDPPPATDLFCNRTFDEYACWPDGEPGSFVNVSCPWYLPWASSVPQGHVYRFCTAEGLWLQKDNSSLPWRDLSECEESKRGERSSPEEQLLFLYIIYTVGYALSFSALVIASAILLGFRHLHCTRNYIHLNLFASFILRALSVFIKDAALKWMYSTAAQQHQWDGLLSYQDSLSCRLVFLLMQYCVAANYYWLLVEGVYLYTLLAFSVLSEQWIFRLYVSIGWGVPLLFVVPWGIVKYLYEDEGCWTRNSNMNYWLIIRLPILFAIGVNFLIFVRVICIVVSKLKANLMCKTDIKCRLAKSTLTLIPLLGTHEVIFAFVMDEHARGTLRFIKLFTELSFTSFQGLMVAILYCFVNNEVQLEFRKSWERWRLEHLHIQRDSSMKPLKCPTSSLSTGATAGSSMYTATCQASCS
human GLP-1R natural genetic variant L443P fused to EGFP at its C-terminal end (P43220, form named): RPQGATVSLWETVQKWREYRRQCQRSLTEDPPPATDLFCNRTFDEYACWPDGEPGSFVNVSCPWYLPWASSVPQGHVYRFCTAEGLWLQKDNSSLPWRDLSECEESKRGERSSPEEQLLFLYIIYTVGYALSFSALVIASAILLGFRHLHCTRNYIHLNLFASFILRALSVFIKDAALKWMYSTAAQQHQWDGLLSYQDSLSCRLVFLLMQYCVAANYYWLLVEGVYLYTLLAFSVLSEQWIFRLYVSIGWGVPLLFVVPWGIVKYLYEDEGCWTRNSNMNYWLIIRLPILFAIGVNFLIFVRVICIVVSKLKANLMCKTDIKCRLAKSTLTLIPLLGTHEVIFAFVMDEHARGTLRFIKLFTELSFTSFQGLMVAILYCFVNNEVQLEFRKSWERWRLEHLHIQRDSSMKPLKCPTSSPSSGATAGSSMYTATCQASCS

Measured: binding

endogenous β-arrestin 2 (from UniProt P32121 1-409)
binds: [1] | [2]

transfected human β-arrestin 2 tagged with Flag-TST (from UniProt P32121 1-409)
binds: all assays above
